Measured data: PubChem BioAssay AID1259276 (Sanger Institute, 2017)

Assay: 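Kinome-wide search for kinases colon cancer cells need, and for drug partners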 (primary screen)
System: human C2BBe1 colorectal cancer cells
Reagent: siRNA pool against human genes
Challenge: DMSO vehicle, or one anchor drug: BYL719 at 1 µM, cetuximab at 5 µg/ml, or trametinib at 10 nM; exposure length not stated
Read-out: 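Cell viability as a fraction of non-targeting control wells, mean of replicates, also as a control-based robust z-score, plus a synergy score for each anchor drug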
Scale: viability robust z-score, siRNA alone: higher = more viable cells after knock-down
Active means: 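a siRNA pool tested without drug is essential if its viability robust z-score falls under -3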
Calls: active = essential (siRNA alone); inactive = no change (siRNA alone)
The whole screen tested 794 reagents; below is an unselected part. 24 of them (3%) count as active. 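Calls come only from the siRNA-alone arm; drug synergy scores do not affect them.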 Unmarked entries are inactive. Not all columns of the deposit are shown. The record does not give: the amount of reagent, the time to read-out.

PIKFYVE
- viability robust z-score, siRNA alone: 0.472

CLK2
- viability robust z-score, siRNA alone: 0.472

FN3KRP
- viability robust z-score, siRNA alone: 0.472

PRKCA
- viability robust z-score, siRNA alone: -1.9

PIP4K2B
- viability robust z-score, siRNA alone: 0.472

GCK
- viability robust z-score, siRNA alone: -3.03 (active)

RPS6KB2
- viability robust z-score, siRNA alone: 0.472

CLK4
- viability robust z-score, siRNA alone: -1.78

HIPK4
- viability robust z-score, siRNA alone: 0.472

PANK4
- viability robust z-score, siRNA alone: 0.0651

CSNK1G3
- viability robust z-score, siRNA alone: 0.472

ZC3H11A
- viability robust z-score, siRNA alone: 0.472

Entries listed so far with an active call:
GCK
- viability robust z-score, siRNA alone: -3.03 (active)
